{"source": "PubChem BioAssay AID652243 (Drosophila RNAi Screening Center, 2013)", "assay": "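Fly genes required for human androgen receptor driven transcription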 (primary screen)", "system": "Drosophila S2R+ cells", "reagents": "long dsRNA against Drosophila genes", "timing": "72 h (48 h, then 24 h hormone)", "conditions": "synthetic androgen R1881 at 10 nM for 24 h", "measurement": "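Per-well raw luminescence of the androgen-driven firefly reporter and of the Renilla control, two replicates each, without normalisation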", "scale": "firefly reporter light: higher = more light from androgen-responsive reporter; Renilla control light: higher = more constitutive control signal (cell number, transfection)", "hit rule": "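Across duplicate plates, a knock-down whose log firefly/Renilla ratio shifted a set fold down or up from the GFP/LacZ control mean was a hit; the downward cut appears as both 1.5 and 3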", "meaning of the calls": "active = hit: reporter lowered or raised; inactive = no hit", "note": "The screen tested about 24,000 reagents; shown is a random part of those with a known target gene and a result. Of all reagents, 246 (1%) are marked active. 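Plates not normalised; calls are printed but the firefly/Renilla ratio behind them is not deposited; fold cut for lowering reported inconsistently.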 Raw values are not corrected between plates. The numbers tell different reagents against one gene apart. The record does not give: the amount of reagent."}
{"target gene": "CG33012", "reagent no.": 1, "firefly reporter light, replicate 1": 2.64e5, "firefly reporter light, replicate 2": 2.00e5, "Renilla control light, replicate 1": 1.52e6, "Renilla control light, replicate 2": 1.46e6, "call": "inactive"}
{"target gene": "CG33012", "reagent no.": 2, "firefly reporter light, replicate 1": 2.88e5, "firefly reporter light, replicate 2": 2.61e5, "Renilla control light, replicate 1": 2.14e6, "Renilla control light, replicate 2": 1.94e6, "call": "inactive"}
{"target gene": "Eaf (ELL-associated factor)", "reagent no.": 1, "firefly reporter light, replicate 1": 25727, "firefly reporter light, replicate 2": 48559, "Renilla control light, replicate 1": 1.61e5, "Renilla control light, replicate 2": 2.16e5, "call": "inactive"}
{"target gene": "Eaf (ELL-associated factor)", "reagent no.": 2, "firefly reporter light, replicate 1": 3.59e5, "firefly reporter light, replicate 2": 3.61e5, "Renilla control light, replicate 1": 9.08e5, "Renilla control light, replicate 2": 8.89e5, "call": "inactive"}
{"target gene": "Eaf (ELL-associated factor)", "reagent no.": 3, "firefly reporter light, replicate 1": 4.88e5, "firefly reporter light, replicate 2": 7.30e5, "Renilla control light, replicate 1": 1.89e6, "Renilla control light, replicate 2": 1.63e6, "call": "inactive"}
{"target gene": "Eaf (ELL-associated factor)", "reagent no.": 4, "firefly reporter light, replicate 1": 3.42e5, "firefly reporter light, replicate 2": 3.59e5, "Renilla control light, replicate 1": 8.69e5, "Renilla control light, replicate 2": 8.37e5, "call": "inactive"}
{"target gene": "PGAP1 (Post-GPI attachment to proteins 1)", "reagent no.": 1, "firefly reporter light, replicate 1": 90395, "firefly reporter light, replicate 2": 83707, "Renilla control light, replicate 1": 6.00e5, "Renilla control light, replicate 2": 4.39e5, "call": "inactive"}
{"target gene": "PGAP1 (Post-GPI attachment to proteins 1)", "reagent no.": 2, "firefly reporter light, replicate 1": 4.52e5, "firefly reporter light, replicate 2": 4.83e5, "Renilla control light, replicate 1": 1.57e6, "Renilla control light, replicate 2": 1.13e6, "call": "inactive"}
{"target gene": "CG10804", "reagent no.": 1, "firefly reporter light, replicate 1": 1.50e5, "firefly reporter light, replicate 2": 1.29e5, "Renilla control light, replicate 1": 9.72e5, "Renilla control light, replicate 2": 6.76e5, "call": "inactive"}
{"target gene": "RpL9 (Ribosomal protein L9)", "reagent no.": 1, "firefly reporter light, replicate 1": 1.61e5, "firefly reporter light, replicate 2": 1.95e5, "Renilla control light, replicate 1": 1.20e6, "Renilla control light, replicate 2": 9.22e5, "call": "inactive"}
{"target gene": "Patsas", "reagent no.": 1, "firefly reporter light, replicate 1": 1.56e6, "firefly reporter light, replicate 2": 7.22e5, "Renilla control light, replicate 1": 2.64e6, "Renilla control light, replicate 2": 1.80e6, "call": "inactive"}
{"target gene": "Patsas", "reagent no.": 2, "firefly reporter light, replicate 1": 4.52e5, "firefly reporter light, replicate 2": 4.40e5, "Renilla control light, replicate 1": 1.09e6, "Renilla control light, replicate 2": 1.21e6, "call": "inactive"}
{"target gene": "Nepl7 (Neprilysin-like 7)", "reagent no.": 1, "firefly reporter light, replicate 1": 4.50e5, "firefly reporter light, replicate 2": 6.39e5, "Renilla control light, replicate 1": 1.31e6, "Renilla control light, replicate 2": 2.02e6, "call": "inactive"}
{"target gene": "Nepl7 (Neprilysin-like 7)", "reagent no.": 2, "firefly reporter light, replicate 1": 2.64e5, "firefly reporter light, replicate 2": 2.09e5, "Renilla control light, replicate 1": 5.20e5, "Renilla control light, replicate 2": 7.83e5, "call": "inactive"}

Entries listed so far whose target name starts with N or n (2):
{"target gene": "Nepl7 (Neprilysin-like 7)", "reagent no.": 1, "firefly reporter light, replicate 1": 4.50e5, "firefly reporter light, replicate 2": 6.39e5, "Renilla control light, replicate 1": 1.31e6, "Renilla control light, replicate 2": 2.02e6, "call": "inactive"}
{"target gene": "Nepl7 (Neprilysin-like 7)", "reagent no.": 2, "firefly reporter light, replicate 1": 2.64e5, "firefly reporter light, replicate 2": 2.09e5, "Renilla control light, replicate 1": 5.20e5, "Renilla control light, replicate 2": 7.83e5, "call": "inactive"}
